“Also recorded” adds a separate entry of the source. For at least one compound, name, drawing or mass did not settle the structure.
Experiments:
AMPK [1] = experiment: AMPK Thr172 phosphorylation by immunoblotting in HEK293 cells; type: cell-based; conditions: serum-starved HEK293 cells, 10 mM phenformin, 1 hour, 37° C.
PP5 = PP5 levels by immunoblotting in HEK293 cell lysates; type: cell-based; conditions: HEK293 cells, 10 mM phenformin, antibody against TPR domains
Experimental: To study the effects of biguanide on the activity of protein phosphatases, HEK293 cell lysates either untreated or treated with biguanide (10 mM phenformin in this example—as described above) were either immunoblotted or assayed for specific protein phosphatase activity by using combinations of phosphatase inhibitors and activators, as well as different phosphorylated substrates.
Since the activity of PP5 in HEK293 cells is low, the levels of PP5 were assessed by immunoblotting using an antibody against the TPR domains of the protein.

The chains behind the UniProt entries cited, without tags or fusion partners. Where a name states a change or a piece, a line headed by the entry shows the natural chain unless it says otherwise. Residues count along the entry.
UniProt P35813: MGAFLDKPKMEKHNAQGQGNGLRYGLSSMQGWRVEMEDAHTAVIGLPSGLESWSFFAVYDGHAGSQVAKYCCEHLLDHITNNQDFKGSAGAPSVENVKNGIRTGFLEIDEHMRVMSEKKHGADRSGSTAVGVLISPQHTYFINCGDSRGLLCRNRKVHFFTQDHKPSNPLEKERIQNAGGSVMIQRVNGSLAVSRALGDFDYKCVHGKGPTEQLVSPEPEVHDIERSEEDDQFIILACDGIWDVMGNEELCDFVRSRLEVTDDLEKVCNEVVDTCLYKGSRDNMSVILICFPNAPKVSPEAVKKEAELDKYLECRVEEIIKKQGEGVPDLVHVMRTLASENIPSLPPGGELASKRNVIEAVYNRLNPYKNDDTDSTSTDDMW
UniProt O75688, whole entry, species assumed: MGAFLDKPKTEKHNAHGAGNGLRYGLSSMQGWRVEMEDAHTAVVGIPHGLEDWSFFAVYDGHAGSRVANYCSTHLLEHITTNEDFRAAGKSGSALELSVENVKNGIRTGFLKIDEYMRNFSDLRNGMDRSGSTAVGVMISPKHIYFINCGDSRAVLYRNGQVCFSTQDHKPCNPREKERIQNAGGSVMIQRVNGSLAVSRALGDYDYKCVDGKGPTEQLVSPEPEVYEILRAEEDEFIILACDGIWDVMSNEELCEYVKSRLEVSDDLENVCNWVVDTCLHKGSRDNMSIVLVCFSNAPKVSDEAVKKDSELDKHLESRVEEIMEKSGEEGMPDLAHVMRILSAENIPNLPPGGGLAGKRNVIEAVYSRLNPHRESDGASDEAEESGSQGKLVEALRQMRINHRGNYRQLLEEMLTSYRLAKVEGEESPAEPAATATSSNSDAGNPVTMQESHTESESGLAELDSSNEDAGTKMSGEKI
UniProt O75688, 1-387 isoform O75688-2: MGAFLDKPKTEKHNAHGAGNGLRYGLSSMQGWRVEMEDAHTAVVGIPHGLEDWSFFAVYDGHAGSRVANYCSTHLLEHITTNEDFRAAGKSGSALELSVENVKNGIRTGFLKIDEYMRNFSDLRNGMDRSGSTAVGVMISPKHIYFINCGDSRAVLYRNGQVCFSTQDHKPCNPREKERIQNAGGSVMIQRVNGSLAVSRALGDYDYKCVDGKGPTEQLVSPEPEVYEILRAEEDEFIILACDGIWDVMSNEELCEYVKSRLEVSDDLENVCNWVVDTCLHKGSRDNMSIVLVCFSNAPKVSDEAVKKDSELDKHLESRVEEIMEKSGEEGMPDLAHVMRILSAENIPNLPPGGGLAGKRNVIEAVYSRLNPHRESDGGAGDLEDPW
UniProt Q9P0J1, 72-537, species assumed: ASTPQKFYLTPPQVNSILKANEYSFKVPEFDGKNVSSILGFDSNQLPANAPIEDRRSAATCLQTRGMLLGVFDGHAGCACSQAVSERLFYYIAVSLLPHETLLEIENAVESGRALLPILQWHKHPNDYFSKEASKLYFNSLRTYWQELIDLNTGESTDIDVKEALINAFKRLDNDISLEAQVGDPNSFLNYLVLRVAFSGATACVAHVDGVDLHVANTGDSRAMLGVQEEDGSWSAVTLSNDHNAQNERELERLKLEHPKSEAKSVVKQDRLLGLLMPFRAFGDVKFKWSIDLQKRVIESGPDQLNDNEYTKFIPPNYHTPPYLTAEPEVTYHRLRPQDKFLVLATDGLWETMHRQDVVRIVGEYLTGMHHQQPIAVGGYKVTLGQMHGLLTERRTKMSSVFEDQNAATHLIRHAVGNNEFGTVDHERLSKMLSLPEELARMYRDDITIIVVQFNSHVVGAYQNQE
UniProt Q9P2J9, 67-529, species assumed: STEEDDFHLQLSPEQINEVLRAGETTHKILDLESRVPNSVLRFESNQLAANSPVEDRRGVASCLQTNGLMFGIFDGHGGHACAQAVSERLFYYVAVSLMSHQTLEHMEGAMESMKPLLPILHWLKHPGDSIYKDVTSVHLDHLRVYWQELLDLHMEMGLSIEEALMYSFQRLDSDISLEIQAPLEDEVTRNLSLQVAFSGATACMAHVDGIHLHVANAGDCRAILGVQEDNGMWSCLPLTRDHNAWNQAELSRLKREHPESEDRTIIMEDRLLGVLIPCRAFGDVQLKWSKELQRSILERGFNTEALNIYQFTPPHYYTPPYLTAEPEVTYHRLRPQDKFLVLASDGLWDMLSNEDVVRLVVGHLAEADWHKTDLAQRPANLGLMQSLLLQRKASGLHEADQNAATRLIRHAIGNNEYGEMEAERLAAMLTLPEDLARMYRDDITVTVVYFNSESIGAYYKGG
UniProt Q9ULR3: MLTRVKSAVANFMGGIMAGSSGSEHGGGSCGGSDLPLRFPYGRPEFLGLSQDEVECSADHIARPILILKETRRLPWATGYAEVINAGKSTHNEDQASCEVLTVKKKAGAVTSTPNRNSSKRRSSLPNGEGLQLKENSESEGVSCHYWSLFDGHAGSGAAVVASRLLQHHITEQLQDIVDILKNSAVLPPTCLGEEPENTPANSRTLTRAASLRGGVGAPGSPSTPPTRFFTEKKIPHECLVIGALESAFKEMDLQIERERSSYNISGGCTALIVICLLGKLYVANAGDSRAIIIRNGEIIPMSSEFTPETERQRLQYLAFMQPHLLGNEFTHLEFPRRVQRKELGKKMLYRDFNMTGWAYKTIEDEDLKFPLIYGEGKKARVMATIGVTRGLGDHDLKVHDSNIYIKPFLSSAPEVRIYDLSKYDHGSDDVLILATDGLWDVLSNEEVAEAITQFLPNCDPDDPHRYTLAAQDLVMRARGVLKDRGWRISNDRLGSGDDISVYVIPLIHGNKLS
UniProt O15297: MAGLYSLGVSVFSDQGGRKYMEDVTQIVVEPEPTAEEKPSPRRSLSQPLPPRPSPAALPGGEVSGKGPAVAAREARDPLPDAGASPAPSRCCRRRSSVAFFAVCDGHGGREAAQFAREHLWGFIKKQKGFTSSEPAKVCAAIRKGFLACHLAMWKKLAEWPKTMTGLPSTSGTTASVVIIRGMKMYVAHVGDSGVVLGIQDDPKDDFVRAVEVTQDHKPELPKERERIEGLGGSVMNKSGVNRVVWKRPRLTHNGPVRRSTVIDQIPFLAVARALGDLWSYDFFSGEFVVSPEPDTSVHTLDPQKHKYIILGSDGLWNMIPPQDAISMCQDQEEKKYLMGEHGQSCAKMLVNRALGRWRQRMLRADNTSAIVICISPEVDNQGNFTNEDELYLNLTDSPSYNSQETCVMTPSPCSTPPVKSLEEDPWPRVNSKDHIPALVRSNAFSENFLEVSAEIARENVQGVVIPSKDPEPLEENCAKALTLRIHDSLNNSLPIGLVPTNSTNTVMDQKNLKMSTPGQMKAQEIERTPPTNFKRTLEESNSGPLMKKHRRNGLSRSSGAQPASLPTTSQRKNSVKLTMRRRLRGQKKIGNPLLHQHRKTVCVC
UniProt O15355: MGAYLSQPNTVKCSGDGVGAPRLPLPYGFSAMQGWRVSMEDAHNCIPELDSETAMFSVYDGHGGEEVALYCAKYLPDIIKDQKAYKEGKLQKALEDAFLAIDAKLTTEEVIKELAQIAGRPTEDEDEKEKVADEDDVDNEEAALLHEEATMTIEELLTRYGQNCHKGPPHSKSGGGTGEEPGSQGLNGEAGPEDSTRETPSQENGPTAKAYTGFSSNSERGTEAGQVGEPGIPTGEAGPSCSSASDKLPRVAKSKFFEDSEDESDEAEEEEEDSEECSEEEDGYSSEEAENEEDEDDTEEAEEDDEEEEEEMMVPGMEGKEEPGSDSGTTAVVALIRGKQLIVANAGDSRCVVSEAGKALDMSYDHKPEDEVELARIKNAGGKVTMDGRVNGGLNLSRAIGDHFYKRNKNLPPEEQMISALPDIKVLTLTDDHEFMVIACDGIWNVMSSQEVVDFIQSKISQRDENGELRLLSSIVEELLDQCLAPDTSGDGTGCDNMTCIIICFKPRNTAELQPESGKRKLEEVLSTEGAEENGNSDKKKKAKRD
UniProt Q9H0C8: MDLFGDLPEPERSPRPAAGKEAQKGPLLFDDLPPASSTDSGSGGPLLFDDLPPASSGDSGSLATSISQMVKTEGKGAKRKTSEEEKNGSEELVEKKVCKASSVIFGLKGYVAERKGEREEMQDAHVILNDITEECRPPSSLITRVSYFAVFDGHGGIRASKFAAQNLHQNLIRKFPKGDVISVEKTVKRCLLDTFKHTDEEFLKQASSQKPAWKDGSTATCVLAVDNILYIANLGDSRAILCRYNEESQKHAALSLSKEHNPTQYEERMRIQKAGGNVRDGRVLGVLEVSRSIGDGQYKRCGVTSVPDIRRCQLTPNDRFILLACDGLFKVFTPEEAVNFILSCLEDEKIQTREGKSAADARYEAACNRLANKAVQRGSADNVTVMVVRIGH
UniProt Q8WY54: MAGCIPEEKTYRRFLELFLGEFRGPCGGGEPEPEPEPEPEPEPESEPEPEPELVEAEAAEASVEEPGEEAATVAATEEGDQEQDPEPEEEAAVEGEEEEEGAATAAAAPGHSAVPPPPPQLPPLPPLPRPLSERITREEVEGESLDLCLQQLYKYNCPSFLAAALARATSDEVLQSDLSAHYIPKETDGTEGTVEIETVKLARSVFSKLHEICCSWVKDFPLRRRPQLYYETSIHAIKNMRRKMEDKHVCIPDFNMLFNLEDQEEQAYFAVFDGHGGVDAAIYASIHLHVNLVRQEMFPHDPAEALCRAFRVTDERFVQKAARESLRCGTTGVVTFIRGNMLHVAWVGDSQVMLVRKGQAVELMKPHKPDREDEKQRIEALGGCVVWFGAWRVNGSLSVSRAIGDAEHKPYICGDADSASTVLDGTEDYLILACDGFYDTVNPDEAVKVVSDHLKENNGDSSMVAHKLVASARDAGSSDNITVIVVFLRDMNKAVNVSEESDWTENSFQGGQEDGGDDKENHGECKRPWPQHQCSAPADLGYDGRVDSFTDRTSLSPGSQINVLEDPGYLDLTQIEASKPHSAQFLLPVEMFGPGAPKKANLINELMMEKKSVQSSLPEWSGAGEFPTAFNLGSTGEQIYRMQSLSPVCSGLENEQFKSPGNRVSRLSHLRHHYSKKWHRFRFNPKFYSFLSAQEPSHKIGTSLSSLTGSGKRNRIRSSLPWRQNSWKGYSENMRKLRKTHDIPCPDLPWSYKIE
UniProt P49593: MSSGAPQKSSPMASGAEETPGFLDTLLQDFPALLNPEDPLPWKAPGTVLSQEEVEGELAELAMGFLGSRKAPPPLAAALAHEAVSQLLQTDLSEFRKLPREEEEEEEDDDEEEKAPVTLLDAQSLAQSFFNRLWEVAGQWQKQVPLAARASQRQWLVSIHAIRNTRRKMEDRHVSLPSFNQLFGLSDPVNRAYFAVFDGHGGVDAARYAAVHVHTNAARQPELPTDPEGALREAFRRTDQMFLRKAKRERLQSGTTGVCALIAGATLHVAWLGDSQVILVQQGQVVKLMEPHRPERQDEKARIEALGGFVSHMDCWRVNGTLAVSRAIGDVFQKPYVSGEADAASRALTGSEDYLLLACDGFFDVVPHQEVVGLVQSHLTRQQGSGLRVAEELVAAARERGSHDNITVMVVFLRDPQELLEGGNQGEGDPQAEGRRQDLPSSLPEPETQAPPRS

PP2A = PP2A phosphorylase phosphatase activity in HEK293 cell lysates; type: cell-based; conditions: 10 mM phenformin, 32P labelled phosphorylase a, 200 nM I-2
Experimental: A Levels of phosphorylation of AMPK at Thr172 in 4 untreated and 4 treated samples. Anti-PP5 TPR domain antibody is used as a loading control. Molecular weights (kDa) are indicated to the left of the panels. B PP1 phosphorylase phosphatase activity in treated and untreated HEK293 cell lysates using phosphorylase a as substrate, in the presence of 4 nM okadaic acid. Data are mean±SEM for four samples measured in triplicate. C PP2A phosphorylase phosphatase activity in treated and untreated HEK293 cell lysates using phosphorylase a as substrate, in the presence of 200 nM I-2. Data are mean±SEM for four samples measured in triplicate. […]
The activity of PP2A in response to phenformin was also assessed using ^32P labelled phosphorylase a as substrate, but for this assay 200 nM I-2 and EGTA (0.1-2 mM) to inhibit metal ion activated protein phosphatases was included to inhibit PP1. No change in the PP2A phosphorylase phosphatase activity could be detected between unstimulated and 10 mM-phenformin stimulated cell lysates (FIG. 1C).

PPM1A [2] = molecular target: T1, PPM1A (Homo sapiens, UniProt P35813); experiment: Bacterially expressed PPM phosphatase activity after preincubation, casein substrate; type: biochemical; conditions: preincubation with 1 mM phenformin, 15 minutes, vs buffer alone
T1 construct: made in house; host or cells: bacteria

PPM1B = molecular target: T2, PPM1B (Homo sapiens, UniProt O75688); experiment: as above; type: biochemical; conditions: preincubation with 1 mM phenformin, 15 minutes, vs buffer alone
T2 construct: made in house; host or cells: bacteria

PDPC1 [3] = molecular target: T3, PDPC1 (Homo sapiens, UniProt Q9P0J1); experiment: as above; type: biochemical; conditions: preincubation with 1 mM phenformin, 15 minutes, vs buffer alone
T3 construct: made in house; host or cells: bacteria

PDPC2 [4] = molecular target: T4, PDPC2 (Homo sapiens, UniProt Q9P2J9); experiment: as above; type: biochemical; conditions: preincubation with 1 mM phenformin, 15 minutes, vs buffer alone
T4 construct: made in house; host or cells: bacteria

Nerpp [5] = molecular target: T5, Nerpp (Homo sapiens, UniProt Q9ULR3); experiment: as above; type: biochemical; conditions: preincubation with 1 mM phenformin, 15 minutes, vs buffer alone
T5 construct: made in house; host or cells: bacteria

PPM1A [6] = experiment: Levels of PPM phosphatases by immunoblotting in HEK293 cells; type: cell-based; conditions: 10 mM phenformin for 1 hour
PPM1B1 [7] = experiment: as above; type: cell-based; conditions: 10 mM phenformin for 1 hour
PPM1B2 [8] = experiment: as above; type: cell-based; conditions: 10 mM phenformin for 1 hour
PPM1D [9] = experiment: as above; type: cell-based; conditions: 10 mM phenformin for 1 hour
PPM1F [10] = experiment: as above; type: cell-based; conditions: 10 mM phenformin for 1 hour
PPM1G [11] = experiment: as above; type: cell-based; conditions: 10 mM phenformin for 1 hour
ILKAP [12] = experiment: as above; type: cell-based; conditions: 10 mM phenformin for 1 hour
PPM phosphatase = PPM phosphatase activity in HEK293 cell lysates separated by FPLC; type: cell-based; conditions: phenformin-treated vs untreated HEK293 lysates, fractions eluting at around 150 mM and 500 mM NaCl
PPM1A1 = molecular target: T6, PPM1A1 (Homo sapiens, UniProt P35813); experiment: Activity of PPM phosphatase immunoprecipitated from HEK293 cell lysates, casein substrate; type: cell-based; conditions: HEK293 cells, 10 mM phenformin
T6 construct: Immunoprecipitation of the PPM phosphatases was performed using peptide antibodies from HEK293 cell lysates; endogenous in cells; host or cells: HEK293

PPM1B1 [13] = molecular target: T7, PPM1B1 (Homo sapiens, UniProt O75688); experiment: as above; type: cell-based; conditions: HEK293 cells, 10 mM phenformin
T7 construct: endogenous in cells; host or cells: HEK293

PPM1B2 [14] = molecular target: T8, PPM1B2 (Homo sapiens, UniProt O75688); experiment: as above; type: cell-based; conditions: HEK293 cells, 10 mM phenformin
T8 construct: endogenous in cells; host or cells: HEK293

PPM1D [15] = molecular target: T9, PPM1D (Homo sapiens, UniProt O15297); experiment: as above; type: cell-based; conditions: HEK293 cells, 10 mM phenformin
T9 construct: endogenous in cells; host or cells: HEK293

PPM1G [16] = molecular target: T10, PPM1G (Homo sapiens, UniProt O15355); experiment: as above; type: cell-based; conditions: HEK293 cells, 10 mM phenformin
T10 construct: Immunoprecipitation of the PPM phosphatases was performed using peptide antibodies from HEK293 cell lysates; endogenous in cells; host or cells: HEK293

ILKAP [17] = molecular target: T11, ILKAP (Homo sapiens, UniProt Q9H0C8); experiment: as above; type: cell-based; conditions: HEK293 cells, 10 mM phenformin
T11 construct: Immunoprecipitation of the PPM phosphatases was performed using peptide antibodies from HEK293 cell lysates; endogenous in cells; host or cells: HEK293

Nerpp [18] = molecular target: T5, Nerpp; experiment: as above; type: cell-based; conditions: HEK293 cells, 10 mM phenformin
PDPC1 [19] = molecular target: T3, PDPC1; experiment: as above; type: cell-based; conditions: HEK293 cells, 10 mM phenformin
PDPC2 [20] = experiment: as above; type: cell-based; conditions: HEK293 cells, 10 mM phenformin
PPM1E = molecular target: T12, PPM1E (Homo sapiens, UniProt Q8WY54); experiment: as above; type: cell-based; conditions: HEK293 cells, 10 mM phenformin
T12 construct: The PPM1A1 and PPM1E isoforms were immunoprecipitated in triplicate from untreated or metformin-treated HEK293 cell lysates; endogenous in cells; host or cells: HEK293
Experimental: PPM1E is immunopelleted with antibodies raised the amino acid sequence […] and the phosphatase activity in the immunopellet is measured in a protein phosphatase assay using 32P-labelled casein as substrate in the presence of 10 mM Mg2+ or Mn2+ ions and 5 μM okadaic acid.
(§1) PPM phosphatase activity in HEK293 cell lysates either untreated or treated with 10 mM phenformin for 1 hour. Individual isoforms were immunoprecipitated from control or phenformin-treated cell lysates and activity measured using ^32P labelled casein as substrate in the presence of 10 mM MgAc and […] acid. Data are mean activities for assays performed in triplicate.
(§2) To determine with greater certainty which PPM phosphatases are affected by biguanide, the PPM phosphatase activity associated with each of the PPM enzymes was assessed. […] No change could be detected in the PPM phosphatases associated with PPM1A1, PPM1B1, PPM1B2, PPM1D, PPM1G, ILKAP, Nerpp, PDPC1 or PDPC2. […] Following immunoprecipitation and immunoblotting of the PPM1E immunoprecipitate from untreated HEK293 cells, no signal could be detected using an antibody directed against PPM1E.
HEK293 cells were treated with 2 mM metformin for 10 minutes prior to lysis. […] Control immunoprecipitations were preformed in triplicate for each lysate using pre-immune antibody and subtracted from the activity calculated for the PPM phosphatase immunoprecipitations. […]

PPM1F [21] = molecular target: T13, PPM1F (Homo sapiens, UniProt P49593); experiment: as above; type: cell-based; conditions: following incubation of HEK293 cells with phenformin
T13 construct: endogenous in cells; host or cells: HEK293
Experimental: PPM1F is immunopelleted with antibodies raised the amino acid sequence […] and the phosphatase activity in the immunopellet is measured in a protein phosphatase assay using 32P-labelled casein as substrate in the presence of 10 mM Mg2+ or Mn2+ ions and 5 μM okadaic acid.
as §1
as §2, with “assessed. In this example, the biguanides are metformin and phenformin.” for “assessed.”

AMPK [22] = conditions: HeLa cells, which lack LKB1; cited from earlier work

## [H]/N=C(/N)N/C(=N/[H])NCCc1ccccc1 [phenformin, phenylethylbiguanide]
AMPK [1]
  phosphorylation of AMPK at Thr172: Increases in phosphorylation
PP5
  levels of PP5: No change
PP2A
  PP2A phosphorylase phosphatase activity: No change
PPM1A [2]
  PPM phosphatase activity of bacterially expressed PPM1A: no difference; also recorded: unaffected
PPM1B
  PPM phosphatase activity of bacterially expressed PPM1B: no difference; also recorded: unaffected
PDPC1 [3]
  PPM phosphatase activity of bacterially expressed PDPC1: no difference; also recorded: unaffected
PDPC2 [4]
  PPM phosphatase activity of bacterially expressed PDPC2: no difference; also recorded: unaffected
Nerpp [5]
  PPM phosphatase activity of bacterially expressed Nerpp: no difference; also recorded: unaffected
PPM1A [6]
  level of PPM1A: No differences; also recorded: did not detect any changes
PPM1B1 [7]
  level of PPM1B1: No differences; also recorded: did not detect any changes
PPM1B2 [8]
  level of PPM1B2: No differences; also recorded: did not detect any changes
PPM1D [9]
  level of PPM1D: No differences; also recorded: did not detect any changes
PPM1F [10]
  level of PPM1F: No differences; also recorded: did not detect any changes
PPM1G [11]
  level of PPM1G: No differences; also recorded: did not detect any changes
ILKAP [12]
  level of ILKAP: No differences; also recorded: did not detect any changes
PPM phosphatase
  protein phosphatase activity in FPLC fractions: Some slight differences
PPM1A1
  activity of immunoprecipitated PPM1A1: No change
PPM1B1 [13]
  activity of immunoprecipitated PPM1B1: No change
PPM1B2 [14]
  activity of immunoprecipitated PPM1B2: No change
PPM1D [15]
  activity of immunoprecipitated PPM1D: No change
PPM1G [16]
  activity of immunoprecipitated PPM1G: No change
ILKAP [17]
  activity of immunoprecipitated ILKAP: No change
Nerpp [18]
  activity of immunoprecipitated Nerpp: No change
PDPC1 [19]
  activity of immunoprecipitated PDPC1: No change
PDPC2 [20]
  activity of immunoprecipitated PDPC2: No change
PPM1E
  activity of immunoprecipitated PPM1E: almost completely ablated; also recorded: inhibited
PPM1F [21]
  activity of PPM1F (in words): inhibited
AMPK [22]
  activation of AMPK: unable to activate AMPK

Reference: patent publication US20100069502A1, “Assay” (priority 2006, published 2010)
